Reference: the supplement of paper PMC12819154, “High-throughput peptide-centric local stability assay extends protein–ligand identification to membrane proteins, tissues and bacteria” (Nature Structural & Molecular Biology, 2025)
The list shows a part of the results, in another mix than the full data. Most entries show no effect beyond the scatter of the controls.

Sequences of proteins named here, by UniProt entry; tags and fusion partners are left off. A change or cut given only in a name is not applied to a line headed by its entry.
UniProt P30131: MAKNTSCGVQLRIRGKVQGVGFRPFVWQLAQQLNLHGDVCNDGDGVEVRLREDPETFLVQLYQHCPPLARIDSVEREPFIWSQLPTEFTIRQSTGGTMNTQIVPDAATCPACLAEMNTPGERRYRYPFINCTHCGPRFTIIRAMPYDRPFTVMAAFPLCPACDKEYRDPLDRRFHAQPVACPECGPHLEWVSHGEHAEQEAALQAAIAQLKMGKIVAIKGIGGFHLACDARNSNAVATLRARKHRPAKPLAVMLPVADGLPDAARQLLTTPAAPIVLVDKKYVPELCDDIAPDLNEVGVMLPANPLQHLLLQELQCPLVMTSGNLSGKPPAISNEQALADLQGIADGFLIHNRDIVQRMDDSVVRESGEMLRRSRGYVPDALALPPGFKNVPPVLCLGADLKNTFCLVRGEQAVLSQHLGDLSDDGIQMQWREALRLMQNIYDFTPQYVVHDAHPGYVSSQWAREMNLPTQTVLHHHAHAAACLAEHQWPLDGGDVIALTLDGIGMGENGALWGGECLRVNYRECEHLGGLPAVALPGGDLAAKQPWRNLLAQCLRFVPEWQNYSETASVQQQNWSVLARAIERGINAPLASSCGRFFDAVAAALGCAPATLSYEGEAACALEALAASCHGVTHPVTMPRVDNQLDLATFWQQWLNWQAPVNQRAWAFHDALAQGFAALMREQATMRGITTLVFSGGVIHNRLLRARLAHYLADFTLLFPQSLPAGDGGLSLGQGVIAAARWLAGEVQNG
UniProt P29744: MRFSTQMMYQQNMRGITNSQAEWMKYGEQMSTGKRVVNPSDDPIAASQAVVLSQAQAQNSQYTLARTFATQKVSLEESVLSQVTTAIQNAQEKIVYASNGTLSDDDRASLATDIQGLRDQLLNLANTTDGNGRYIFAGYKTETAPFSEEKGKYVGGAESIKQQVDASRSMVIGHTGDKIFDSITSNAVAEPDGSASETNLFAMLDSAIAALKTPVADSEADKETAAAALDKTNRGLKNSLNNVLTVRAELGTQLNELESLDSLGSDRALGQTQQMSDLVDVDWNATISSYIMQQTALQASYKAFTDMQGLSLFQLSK
UniProt P23524: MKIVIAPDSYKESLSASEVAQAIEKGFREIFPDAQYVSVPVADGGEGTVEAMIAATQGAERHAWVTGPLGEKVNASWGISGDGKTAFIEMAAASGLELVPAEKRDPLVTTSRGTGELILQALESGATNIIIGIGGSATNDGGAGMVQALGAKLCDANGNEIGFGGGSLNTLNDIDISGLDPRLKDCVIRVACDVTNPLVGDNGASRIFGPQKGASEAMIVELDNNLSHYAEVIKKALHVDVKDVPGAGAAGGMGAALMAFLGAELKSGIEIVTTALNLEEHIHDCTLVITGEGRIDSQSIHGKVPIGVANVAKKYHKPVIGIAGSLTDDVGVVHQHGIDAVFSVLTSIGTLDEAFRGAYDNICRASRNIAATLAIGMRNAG
UniProt P16433: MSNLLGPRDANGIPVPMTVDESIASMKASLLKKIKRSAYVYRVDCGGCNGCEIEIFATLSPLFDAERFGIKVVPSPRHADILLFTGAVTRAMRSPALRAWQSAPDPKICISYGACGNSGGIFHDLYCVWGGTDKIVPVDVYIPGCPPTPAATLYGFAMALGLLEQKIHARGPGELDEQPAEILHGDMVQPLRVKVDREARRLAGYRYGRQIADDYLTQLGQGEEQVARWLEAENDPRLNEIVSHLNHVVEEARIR
UniProt P21363: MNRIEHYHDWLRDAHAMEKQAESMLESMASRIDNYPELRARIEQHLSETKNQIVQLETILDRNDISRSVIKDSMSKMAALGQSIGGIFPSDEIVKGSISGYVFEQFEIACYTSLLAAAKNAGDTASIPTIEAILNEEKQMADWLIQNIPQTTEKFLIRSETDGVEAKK
UniProt P16528: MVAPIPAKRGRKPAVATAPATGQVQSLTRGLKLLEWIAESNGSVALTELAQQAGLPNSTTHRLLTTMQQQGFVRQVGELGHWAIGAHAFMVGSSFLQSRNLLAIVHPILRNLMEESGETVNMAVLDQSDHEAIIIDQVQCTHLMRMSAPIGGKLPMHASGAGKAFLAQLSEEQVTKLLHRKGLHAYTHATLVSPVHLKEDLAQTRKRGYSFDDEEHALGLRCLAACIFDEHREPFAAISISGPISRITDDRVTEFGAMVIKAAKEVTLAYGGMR
UniProt P25396: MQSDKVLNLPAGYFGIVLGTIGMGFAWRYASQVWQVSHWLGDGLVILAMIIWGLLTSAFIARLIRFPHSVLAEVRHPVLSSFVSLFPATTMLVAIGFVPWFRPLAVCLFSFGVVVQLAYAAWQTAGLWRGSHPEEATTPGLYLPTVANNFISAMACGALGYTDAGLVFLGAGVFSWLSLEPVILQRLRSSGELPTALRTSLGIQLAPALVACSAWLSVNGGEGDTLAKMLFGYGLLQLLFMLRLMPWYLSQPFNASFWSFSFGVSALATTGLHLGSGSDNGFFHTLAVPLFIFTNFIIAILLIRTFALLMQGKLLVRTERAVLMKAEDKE
UniProt P27302: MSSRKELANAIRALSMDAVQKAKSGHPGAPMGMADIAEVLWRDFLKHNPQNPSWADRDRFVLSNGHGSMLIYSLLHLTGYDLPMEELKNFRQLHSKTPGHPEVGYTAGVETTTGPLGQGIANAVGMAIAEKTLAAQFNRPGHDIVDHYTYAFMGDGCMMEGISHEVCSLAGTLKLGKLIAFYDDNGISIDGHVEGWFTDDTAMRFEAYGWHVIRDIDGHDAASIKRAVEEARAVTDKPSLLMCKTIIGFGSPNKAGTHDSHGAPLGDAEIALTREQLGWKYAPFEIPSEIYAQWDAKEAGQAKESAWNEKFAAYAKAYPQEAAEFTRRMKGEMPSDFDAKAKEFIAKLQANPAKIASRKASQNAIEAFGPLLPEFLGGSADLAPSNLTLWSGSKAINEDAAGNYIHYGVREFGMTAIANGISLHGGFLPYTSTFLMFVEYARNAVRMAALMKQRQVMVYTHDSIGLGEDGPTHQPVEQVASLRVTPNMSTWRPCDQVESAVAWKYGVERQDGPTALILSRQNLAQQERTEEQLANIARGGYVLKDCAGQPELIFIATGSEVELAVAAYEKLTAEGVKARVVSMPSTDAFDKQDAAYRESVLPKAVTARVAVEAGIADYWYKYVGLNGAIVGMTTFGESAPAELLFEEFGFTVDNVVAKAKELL
UniProt P17411: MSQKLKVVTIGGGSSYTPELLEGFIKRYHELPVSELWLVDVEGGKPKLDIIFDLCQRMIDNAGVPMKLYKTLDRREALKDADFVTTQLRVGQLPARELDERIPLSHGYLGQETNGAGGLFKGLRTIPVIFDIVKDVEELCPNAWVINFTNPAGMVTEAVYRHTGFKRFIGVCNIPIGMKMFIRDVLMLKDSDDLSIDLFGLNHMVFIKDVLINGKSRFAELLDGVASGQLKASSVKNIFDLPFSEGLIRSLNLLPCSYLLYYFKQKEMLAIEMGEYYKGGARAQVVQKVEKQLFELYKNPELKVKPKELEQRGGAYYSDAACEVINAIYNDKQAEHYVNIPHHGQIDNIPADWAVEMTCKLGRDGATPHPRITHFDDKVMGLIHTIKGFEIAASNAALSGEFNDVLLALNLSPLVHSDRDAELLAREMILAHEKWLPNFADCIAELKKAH
UniProt P30138: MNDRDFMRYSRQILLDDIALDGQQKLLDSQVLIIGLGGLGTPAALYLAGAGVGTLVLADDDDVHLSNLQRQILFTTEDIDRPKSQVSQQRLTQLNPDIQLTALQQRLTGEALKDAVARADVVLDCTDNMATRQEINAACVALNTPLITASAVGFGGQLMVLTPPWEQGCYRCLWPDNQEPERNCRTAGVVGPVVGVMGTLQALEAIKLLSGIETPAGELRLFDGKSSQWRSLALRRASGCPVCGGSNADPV
UniProt P27862: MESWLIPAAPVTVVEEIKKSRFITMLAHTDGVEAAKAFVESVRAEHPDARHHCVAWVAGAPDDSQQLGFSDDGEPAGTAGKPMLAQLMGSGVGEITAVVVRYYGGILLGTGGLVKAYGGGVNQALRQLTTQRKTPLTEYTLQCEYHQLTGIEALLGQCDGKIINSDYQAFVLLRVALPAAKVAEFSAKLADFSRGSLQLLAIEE
UniProt P25718: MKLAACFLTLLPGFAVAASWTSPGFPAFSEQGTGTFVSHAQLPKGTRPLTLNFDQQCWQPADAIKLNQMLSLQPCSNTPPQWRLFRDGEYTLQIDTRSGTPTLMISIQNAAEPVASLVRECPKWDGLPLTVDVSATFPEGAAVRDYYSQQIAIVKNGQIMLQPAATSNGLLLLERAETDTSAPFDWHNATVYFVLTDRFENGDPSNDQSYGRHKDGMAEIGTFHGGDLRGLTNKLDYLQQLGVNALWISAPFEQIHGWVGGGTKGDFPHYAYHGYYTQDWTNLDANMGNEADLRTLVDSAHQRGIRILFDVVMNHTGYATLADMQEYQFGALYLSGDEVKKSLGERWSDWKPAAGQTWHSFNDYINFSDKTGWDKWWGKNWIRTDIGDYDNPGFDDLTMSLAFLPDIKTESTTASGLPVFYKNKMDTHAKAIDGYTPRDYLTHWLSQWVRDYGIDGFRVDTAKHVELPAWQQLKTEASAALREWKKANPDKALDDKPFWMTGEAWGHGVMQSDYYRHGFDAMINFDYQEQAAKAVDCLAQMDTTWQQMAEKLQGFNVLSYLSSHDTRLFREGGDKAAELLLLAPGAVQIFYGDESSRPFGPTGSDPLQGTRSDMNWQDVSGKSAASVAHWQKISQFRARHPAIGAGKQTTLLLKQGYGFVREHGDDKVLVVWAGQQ
UniProt P27294: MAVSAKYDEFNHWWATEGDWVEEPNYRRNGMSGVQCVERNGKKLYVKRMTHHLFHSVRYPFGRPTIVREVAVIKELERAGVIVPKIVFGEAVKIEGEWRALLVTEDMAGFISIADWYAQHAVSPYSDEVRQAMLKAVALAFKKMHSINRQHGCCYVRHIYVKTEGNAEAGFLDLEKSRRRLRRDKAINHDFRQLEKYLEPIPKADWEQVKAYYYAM
UniProt P23917: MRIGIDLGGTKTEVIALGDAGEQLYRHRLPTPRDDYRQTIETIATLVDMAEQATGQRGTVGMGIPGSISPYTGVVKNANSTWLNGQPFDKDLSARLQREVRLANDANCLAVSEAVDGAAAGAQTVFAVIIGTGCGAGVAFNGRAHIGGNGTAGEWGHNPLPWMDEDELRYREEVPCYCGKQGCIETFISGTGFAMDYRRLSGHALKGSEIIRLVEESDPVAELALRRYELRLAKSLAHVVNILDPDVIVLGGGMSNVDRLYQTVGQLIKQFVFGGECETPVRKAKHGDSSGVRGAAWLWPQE
UniProt P25738: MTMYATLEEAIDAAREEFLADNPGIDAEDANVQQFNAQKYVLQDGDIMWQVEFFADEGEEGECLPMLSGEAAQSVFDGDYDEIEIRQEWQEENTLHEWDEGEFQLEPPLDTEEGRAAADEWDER
UniProt P30859: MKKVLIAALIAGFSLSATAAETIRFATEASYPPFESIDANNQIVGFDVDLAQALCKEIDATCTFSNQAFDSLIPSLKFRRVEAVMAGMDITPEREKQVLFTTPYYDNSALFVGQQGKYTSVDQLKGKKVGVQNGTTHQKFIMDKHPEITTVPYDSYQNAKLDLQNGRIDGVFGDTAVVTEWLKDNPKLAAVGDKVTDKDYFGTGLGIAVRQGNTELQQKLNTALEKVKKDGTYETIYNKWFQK
UniProt P21517: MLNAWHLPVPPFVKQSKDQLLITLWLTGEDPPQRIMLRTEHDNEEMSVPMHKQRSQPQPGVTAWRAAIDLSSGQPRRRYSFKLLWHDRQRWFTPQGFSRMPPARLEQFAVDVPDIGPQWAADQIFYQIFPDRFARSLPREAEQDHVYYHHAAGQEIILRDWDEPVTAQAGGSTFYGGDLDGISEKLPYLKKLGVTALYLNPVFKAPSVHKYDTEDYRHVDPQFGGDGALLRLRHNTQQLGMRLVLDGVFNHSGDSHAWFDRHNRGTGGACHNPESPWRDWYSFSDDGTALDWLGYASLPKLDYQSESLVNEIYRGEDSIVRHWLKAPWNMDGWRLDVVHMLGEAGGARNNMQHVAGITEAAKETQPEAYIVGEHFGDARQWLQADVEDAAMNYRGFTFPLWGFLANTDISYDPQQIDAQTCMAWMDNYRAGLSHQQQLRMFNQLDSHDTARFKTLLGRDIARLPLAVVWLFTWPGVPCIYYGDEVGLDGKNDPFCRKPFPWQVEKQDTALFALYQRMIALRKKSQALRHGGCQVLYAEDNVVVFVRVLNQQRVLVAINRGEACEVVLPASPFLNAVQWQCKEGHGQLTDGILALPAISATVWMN
UniProt P18811: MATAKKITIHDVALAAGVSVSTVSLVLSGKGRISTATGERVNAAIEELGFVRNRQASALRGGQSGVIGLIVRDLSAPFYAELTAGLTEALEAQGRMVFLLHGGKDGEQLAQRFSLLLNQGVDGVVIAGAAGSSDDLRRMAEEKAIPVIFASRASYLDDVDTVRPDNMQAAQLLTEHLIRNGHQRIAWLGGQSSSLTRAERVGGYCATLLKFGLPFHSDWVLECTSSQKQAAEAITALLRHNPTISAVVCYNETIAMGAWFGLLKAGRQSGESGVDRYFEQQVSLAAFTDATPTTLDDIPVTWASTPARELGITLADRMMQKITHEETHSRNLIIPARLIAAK

What follows are targets tested with Nc1ncnc2c1ncn2[C@@H]1O[C@H](COP(=O)(O)OP(=O)(O)OP(=O)(O)O)[C@@H](O)[C@H]1O [adenosine 5'-triphosphate] (assay: log2 fold change of tryptic peptide abundance, ligand vs vehicle (limited proteolysis) (log2 ratio); higher = more trypsin-susceptible (destabilized)). Details: ligand concentration: 5 mM; sample: E. coli desalted lysate; replicate design: treated before aliquoting.
Procedure: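 HT-PELSA: desalted E. coli K-12 BW25113 lysate (with 12 mM MgCl2) incubated with 5 mM ATP (pH 7) or water for 30 min at 25 C, then a 4 min trypsin pulse at 22 C. Peptides were quantified by DIA-MS (4 replicates). Value is the peptide log2 fold change (treated/control); negative = stabilized. Scale: negative = ligand-stabilized region.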
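Further: lysate desalted by size exclusion to strip endogenous ATP, peptide intensities built from DIA-NN precursor signals, and peptides missing any value discarded before comparison.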

Question: How did the log2 fold change turn out when “UniProt P30131 (peptide sequence: NLLAQCLR, peptide start residue: 549)” was run?
Answer: 0.109

Question: How did the log2 fold change turn out when “UniProt P29744 (peptide sequence: NSLNNVLTVR, peptide start residue: 238)” was run?
Answer: -0.0561

Question: How did the log2 fold change turn out when “UniProt P21189 (peptide sequence: ETIDKLMAGELDAR, peptide start residue: 668)” was run?
Answer: 0.339

Question: “UniProt P23524 (peptide sequence: IVIAPDSYK, peptide start residue: 3)” was tested. Which log2 fold change did it give?
Answer: -0.274

Question: How did the log2 fold change turn out when “UniProt P30128 (peptide sequence: DYISIDSPMAR, peptide start residue: 116)” was run?
Answer: 0.169

Question: “UniProt P29012 (peptide sequence: LTTCVHSNWQLK, peptide start residue: 96)” was tested. Which log2 fold change did it give?
Answer: -0.326

Question: Which log2 fold change does the source give for “UniProt P16433 (peptide sequence: LNEIVSHLNHVVEEAR, peptide start residue: 238)” here?
Answer: -0.71

Question: “UniProt P24178 (peptide sequence: WLEANNIDYR, peptide start residue: 19)” was tested. Which log2 fold change did it give?
Answer: 0.126

Question: With “UniProt P21363 (peptide sequence: ARIEQHLSETK, peptide start residue: 40)” as the target, how does the log2 fold change read?
Answer: 1.56

Question: How did the log2 fold change turn out when “UniProt P16431 (peptide sequence: GDDIHWSMTGDNQK, peptide start residue: 479)” was run?
Answer: -0.704

Question: With “UniProt P23842 (peptide sequence: ALEQAPEQEAGK, peptide start residue: 339)” as the target, how does the log2 fold change read?
Answer: -0.495

Question: Which log2 fold change does the source give for “UniProt P23886 (peptide sequence: YYQFKQGL, peptide start residue: 566)” here?
Answer: 0.648

Question: How did the log2 fold change turn out when “UniProt P16528 (peptide sequence: KPAVATAPATGQVQSLTR, peptide start residue: 12)” was run?
Answer: -0.619

Question: “UniProt P23843 (peptide sequence: NMYIVKH, peptide start residue: 537)” was tested. Which log2 fold change did it give?
Answer: 0.756

Question: For “UniProt P28915 (peptide sequence: LNENHAIK, peptide start residue: 93)”, which log2 fold change is on record?
Answer: 0.607

Question: With “UniProt P25396 (peptide sequence: AVLMKAEDKE, peptide start residue: 321)” as the target, how does the log2 fold change read?
Answer: -0.264

Question: “UniProt P27302 (peptide sequence: LTAEGVKAR, peptide start residue: 571)” was tested. Which log2 fold change did it give?
Answer: -0.538

Question: Which log2 fold change does the source give for “UniProt P17411 (peptide sequence: QLFELYKNPELK, peptide start residue: 292)” here?
Answer: 0.404

Question: “UniProt P30138 (peptide sequence: LLSGIETPAGELR, peptide start residue: 208)” was tested. Which log2 fold change did it give?
Answer: -0.275

Question: For “UniProt P27303 (peptide sequence: STPVAVSTAR, peptide start residue: 361)”, which log2 fold change is on record?
Answer: 0.16

Question: With “UniProt P18390 (peptide sequence: LASVTDAENIK, peptide start residue: 87)” as the target, how does the log2 fold change read?
Answer: -0.307

Question: With “UniProt P27862 (peptide sequence: AYGGGVNQALR, peptide start residue: 116)” as the target, how does the log2 fold change read?
Answer: 0.403

Question: With “UniProt P19642 (peptide sequence: AVAGAPGK, peptide start residue: 440)” as the target, how does the log2 fold change read?
Answer: -0.352

Question: Which log2 fold change does the source give for “UniProt P25718 (peptide sequence: HKDGMAEIGTFHGGDLR, peptide start residue: 213)” here?
Answer: -0.775

Question: How did the log2 fold change turn out when “UniProt P22256 (peptide sequence: VWDVEGR, peptide start residue: 35)” was run?
Answer: -0.418

Question: Which log2 fold change does the source give for “UniProt P27294 (peptide sequence: NGMSGVQCVER, peptide start residue: 29)” here?
Answer: -0.154

Question: How did the log2 fold change turn out when “UniProt P19317 (peptide sequence: TTSLLLFEHVHAESR, peptide start residue: 64)” was run?
Answer: -0.444

Question: With “UniProt P23917 (peptide sequence: LYQTVGQLIK, peptide start residue: 260)” as the target, how does the log2 fold change read?
Answer: -0.326

Question: “UniProt P25549 (peptide sequence: SDKPFFLYYGTR, peptide start residue: 289)” was tested. Which log2 fold change did it give?
Answer: 0.23

Question: With “UniProt P22787 (peptide sequence: TVVPGESSATVK, peptide start residue: 396)” as the target, how does the log2 fold change read?
Answer: -0.203

Question: For “UniProt P25738 (peptide sequence: AAADEWDER, peptide start residue: 116)”, which log2 fold change is on record?
Answer: 0.109

Question: Which log2 fold change does the source give for “UniProt P28304 (peptide sequence: LIGTVGTAQK, peptide start residue: 168)” here?
Answer: -0.3

Question: For “UniProt P30748 (peptide sequence: QHMAAQSDRWALALEDGK, peptide start residue: 33)”, which log2 fold change is on record?
Answer: -0.356

Question: How did the log2 fold change turn out when “UniProt P19319 (peptide sequence: GETFADGHGQVMHSNR, peptide start residue: 15)” was run?
Answer: 0.883

Question: “UniProt P30859 (peptide sequence: YTSVDQLK, peptide start residue: 118)” was tested. Which log2 fold change did it give?
Answer: -0.294

Question: For “UniProt P21367 (peptide sequence: DIEPDKFK, peptide start residue: 30)”, which log2 fold change is on record?
Answer: -0.177

Question: “UniProt P21517 (peptide sequence: EAEQDHVYYHHAAGQEIILR, peptide start residue: 140)” was tested. Which log2 fold change did it give?
Answer: 0.512

Question: For “UniProt P18811 (peptide sequence: VNAAIEELGFVR, peptide start residue: 41)”, which log2 fold change is on record?
Answer: -0.293

Question: With “UniProt P25550 (peptide sequence: LADETTAR, peptide start residue: 205)” as the target, how does the log2 fold change read?
Answer: -0.541

Question: For “UniProt P30863 (peptide sequence: AQNLQLDAEDKK, peptide start residue: 234)”, which log2 fold change is on record?
Answer: 0.308
